This is one part of the list. Shown are side measurements of this screen, not its main read-out; they come without a call. Compounds called inactive in the main read-out are mostly missing here. Potencies come from curve fits of mixed quality, noted in brackets.

This test in a line: qHTS Assay for Lipid Storage Modulators in Drosophila S3 Cells.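 On cell number change: cells counted by Cell Tracker Red CMTPX staining in the red channel.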 Conditions: BODIPY lipid droplet fluorescence, 18-24 h; for cell number change: measured here: cell count max response, cells fed with added oleic acid. The gist of the method:
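Drosophila S3 cells got compounds at several concentrations plus oleic acid (400 uM solution). Laser-scanning cytometry with 488 nm excitation read lipid droplets at 500-530 nm and cells at 575-640 nm. Percent activity was relative to 20 uM Triacsin C.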
In general terms: In qHTS, concentration-response curves come from the screen itself.

[1] abbreviates: measured here: lipid fluorescence (Fed channel) AC50, cells fed with added oleic acid.
Setting [2] is: measured here: cell number channel AC50, cells fed with added oleic acid.

As usually defined, the AC50 is the concentration at which the activity in the assay is half-maximal. The low end stands for greater potency, the high end for weaker potency. For the compound `CCOc1ccc(N2C(=O)CC(NC3CCN(C(=O)c4cccs4)CC3)C2=O)cc1` (centres undefined), the cell number change was -10.5%. Moreover, the AC50 under setting [1] is 4.11 µM [rising, full curve].
Regarding `COc1ccc2cc3cc(C(=O)NCCN4CCc5ccccc5C4)sc3nc2c1`, the cell number change is 25.3%. The AC50 under setting [1] is 0.58 µM [rising, full curve].
With `O=C(CSc1nnc(Cn2cnc3ccccc32)o1)c1ccccc1`, under setting [1], the AC50 was 29.1 µM [rising, single point].
For the compound `N#Cc1ccccc1S(=O)(=O)N1CCN(CC(O)COc2ccccc2F)CC1` (centres undefined), under setting [1], the half-maximal activity concentration (AC50) is 6.51 µM [falling, single point].
On to `COCCN(C(=O)Cn1c(C(F)(F)F)nc2ccccc21)c1c(N)n(Cc2ccccc2)c(=O)[nH]c1=O`, for which the cell number change was -49.5%. The AC50 under setting [2] is 10.3 µM [falling, partial curve].
For the compound `Cn1c(Cn2c(=O)sc3ccccc32)nnc1SCC(=O)NCc1ccccc1Cl`, the cell number change was -48.2%. In addition, under setting [2], the AC50 was 10.3 µM [falling, partial curve]. Under setting [1], the AC50 is 6.51 µM [falling, single point].
In the case of `CC(=O)OCCCNc1cc(Sc2ccc(C)cc2)c2nonc2c1[N+](=O)[O-]`, the cell number change is -11.2%. The AC50 under setting [1] was 0.116 µM [falling, full curve, poor fit].
In the case of `COc1cccc(N2C(=NC(=O)COc3ccccc3)SC3CS(=O)(=O)CC32)c1` (centres undefined), the cell number change amounted to 31.3%. The AC50 under setting [2] was 0.92 µM [rising, full curve, poor fit].
As for `O=C(CN1CCC(NC(=O)c2ccccc2F)CC1)Nc1ccc2c(c1)OCCO2`, the cell number change was 2.51%. The AC50 under setting [1] is 29.1 µM [rising, single point].
Take `CC1CCCCN1C(=O)CSc1ccc(-c2ccc(F)cc2)nn1` (centres undefined): the cell number change stood at 3.09%.
Regarding `CCN(CC)c1ccc(NC2CC(=O)N(CCc3ccc(OC)cc3)C2=O)cc1` (centres undefined), the cell number change was -26%.
Regarding `CC(OC(=O)c1ccc(Cl)nc1)C(=O)NC1CCCC1` (centres undefined), the cell number change is 0.241%. For the same compound, the AC50 under setting [1] was 0.58 µM [rising, single point].
On to `Cc1[nH]ccc(=O)c1OCC(=O)O`, for which the cell number change was 29.5%. Besides, the AC50 under setting [1] was 6.51 µM [falling, single point].
Consider `CCOC(=O)C(=O)Nc1ccc(S(=O)(=O)Nc2nccs2)cc1`, for which the cell number change is -6.22%. The AC50 under setting [1] is 0.0517 µM [rising, partial curve, poor fit].
`CN(C(=O)COC(=O)c1ccc2c(c1)OCCO2)c1ccccc1`: the cell number change was -39.7%. In addition, the AC50 under setting [1] was 8.91 µM [rising, partial curve].
Regarding `COc1ccccc1N1CCN(CCCOc2ccc(F)cc2)CC1`, the cell number change worked out at 2.01%. Also, under setting [1], the AC50 is 29.1 µM [rising, single point].
For the compound `O=C(Cn1cnc2c(nnn2Cc2ccc(F)cc2)c1=O)Nc1ccc2c(c1)OCCO2`, the cell number change is 55.7%. Besides, under setting [2], the AC50 was 18.4 µM [rising, single point].
`CCCc1cc(=O)oc2cc(O[C@@H]3O[C@H](CO)[C@@H](O)[C@H](O)[C@H]3O)ccc12`: the cell number change amounted to 8.33%.
As for `CCOC(=O)C1=C(C)NC2=C(C1c1ccc([N+](=O)[O-])cc1)S(=O)(=O)c1ccccc12` (centres undefined), the cell number change came to 40.4%. For the same compound, the AC50 under setting [2] was 1.64 µM [rising, single point]. Moreover, the AC50 under setting [1] is 6.51 µM [rising, single point].
For the compound `COc1ccccc1N1CCN(C(=O)c2ccccc2NC(=O)C2CCCCC2C(=O)O)CC1` (centres undefined), the cell number change is -0.37%. The AC50 under setting [2] was 0.731 µM [rising, full curve, poor fit].
As to `COc1cc(C(=O)Nc2cccc(-c3nncn3C)c2)cc(OC)c1OC`, the cell number change was found to be 14.6%. Further, the AC50 under setting [1] was 6.51 µM [falling, single point].
Turning to `COc1ccc(-c2nnc(N3CCOCC3)c3ccccc23)cc1`, the cell number change was -22.3%.
As for `Cc1cc(/C=C2\NC(=S)N(C)C2=O)ccc1N1CCCC1`, the cell number change was -98%. Also, the AC50 under setting [2] was 18.4 µM [falling, single point]. Besides, the AC50 under setting [1] was 18.4 µM [falling, single point].
As to `Oc1ccc2cccnc2c1`, the cell number change amounted to 13.7%. The half-maximal activity concentration (AC50) under setting [2] is 0.13 µM [falling, full curve, poor fit].
As to `CC(C)C(NC(=O)CCNC(=O)c1ccc(C(C)(C)C)cc1)c1nc2ccccc2[nH]1` (centres undefined), the cell number change is -46.2%. For the same compound, the AC50 under setting [2] is 20.6 µM [falling, partial curve].
Turning to `Cc1ccc(C2c3[nH]c4ccccc4c3C[C@H]3C(=O)N(c4ccccc4C(=O)N4CCC(C(=O)O)CC4)C(=O)N23)cc1` (some centres undefined), the cell number change was 5.8%. In addition, the concentration at half-maximal activity (AC50) under setting [1] is 29.1 µM [rising, single point].
With `CCOc1ccc(CCNC(=O)c2ccc(OCc3c(C)noc3C)cc2)cc1OCC`, the AC50 under setting [1] was 29.1 µM [falling, single point].
Turning to `CCCc1nnc(NC(=O)CCC(=O)N2CCN(Cc3cc(Cl)ccc3OC)CC2)s1`, the cell number change was 6.19%. In addition, the AC50 under setting [1] was 20.6 µM [rising, single point].
Take `O=C(Nc1cccnc1)c1cccc(F)c1`: the cell number change was -39.5%. Besides, the AC50 under setting [2] was 29.1 µM [falling, single point]. Under setting [1], the AC50 is 0.291 µM [rising, partial curve, poor fit].
Consider `COc1cccc(C2=CC(c3cc(OC)ccc3OC)n3nnnc3N2)c1` (centres undefined), for which the cell number change was -19.4%. For the same compound, the AC50 under setting [1] is 0.517 µM [rising, full curve].
For the compound `COC(=O)c1ccccc1NC(=O)CN(c1ccc(C)cc1)S(C)(=O)=O`, the cell number change is -0.518%. The AC50 under setting [1] was 6.51 µM [rising, single point].
On to `O=C(c1ccc(F)cc1)N1CCC(N2CCCCCC2)CC1`, for which the cell number change was -1.46%.
Take `CC(=O)c1ccc(NC(=O)COC(=O)c2ccc(F)cc2F)cc1`: the cell number change is 32.9%. Moreover, under setting [2], the AC50 is 0.184 µM [rising, full curve, poor fit]. In addition, the AC50 under setting [1] was 0.13 µM [falling, full curve, poor fit].
Turning to `COc1ccccc1C(=O)NC(C)c1ccccc1` (centres undefined), the AC50 under setting [2] was 0.0461 µM [rising, full curve, poor fit] and the AC50 under setting [1] is 2.06 µM [rising, partial curve].
With `COc1cc(C(=O)NCc2nnc(SCC(=O)Nc3nccs3)o2)cc(OC)c1OC`, the half-maximal activity concentration (AC50) under setting [1] was 6.51 µM [falling, single point].
For `O=C(Nc1nonc1-c1ccc(Cl)cc1)c1ccccc1`, the cell number change is 34.7%. Besides, under setting [2], the AC50 is 0.00411 µM [rising, full curve, poor fit]. Moreover, the AC50 under setting [1] was 0.00461 µM [rising, full curve, poor fit].
For `CCOC(=O)CCCCC(=O)c1[nH]c(=O)[nH]c1CSc1nnc2c3ccccc3n(C(C)C)c2n1`, the cell number change was -25.4%. Moreover, the AC50 under setting [1] was 0.103 µM [rising, full curve, poor fit].
Take `O=C(COC(=O)/C=C/c1ccc(Br)o1)NCCCN1CCCC1=O`: the cell number change came out at 18.6%. For the same compound, the AC50 under setting [1] was 29.1 µM [rising, single point].
Turning to `CCOc1ccc(NC(=O)CSc2nnc(-c3ccncc3)n2CC2CCCO2)cc1` (centres undefined), the cell number change was -3.33%. In addition, the AC50 under setting [1] is 0.146 µM [rising, full curve, poor fit].
With `COCC(C)NC(=S)NC(=O)c1cc(S(=O)(=O)N2CCOCC2)ccc1C` (centres undefined), the cell number change amounted to 81.8%. For the same compound, the AC50 under setting [2] was 2.59 µM [falling, single point]. The AC50 under setting [1] is 4.61 µM [falling, partial curve].
As to `CCOc1ccc(/C=C2\CCC(C3CCCC3)C2=O)cc1OC` (centres undefined), the cell number change was found to be 2.13%.
Regarding `Cc1ccc(S(=O)(=O)c2nc(C)oc2NCc2ccccc2)cc1`, the cell number change was determined as 96.4%. Moreover, the AC50 under setting [2] is 20.6 µM [rising, single point].
Consider `O=C(Nc1ccc(Cc2ccncc2)cc1)c1ccc([N+](=O)[O-])o1`, for which the cell number change is -51.1%. For the same compound, the AC50 under setting [2] is 9.2 µM [falling, partial curve]. In addition, under setting [1], the AC50 was 16.4 µM [falling, partial curve].
Take `Cc1ccc(C)c(NC(=S)NNC(=O)c2csc3c2CCC(C)C3)c1` (centres undefined): the cell number change was -15%. Moreover, the AC50 under setting [1] is 0.731 µM [falling, single point].
Take `C=C(C)c1ccc(C(C)(C)NC(=O)NCc2ccco2)cc1`: the cell number change amounted to 18%. Under setting [1], the AC50 is 18.4 µM [rising, single point].
In the case of `Cc1ccccc1CN1CCN(Cc2ccccc2C(F)(F)F)CC1`, the cell number change is -55.8%. Moreover, the AC50 under setting [2] was 5.8 µM [falling, full curve].
On to `O=C(NC(=S)Nc1ccc2nc[nH]c2c1)c1ccccc1`, for which the cell number change is -1.9%.
As to `COc1ccc2[nH]c3c(c2c1)CCNC3C1CC=C(C)CC1` (centres undefined), the cell number change is 12.6%.
As for `CN(C(=S)Nc1ccccc1F)C1(c2ccccc2Cl)CCCCC1=O` (centres undefined), the cell number change was -17.2%.
With `CN(C)CCCN(C(=O)COc1ccc(Cl)cc1)c1nc2cc3c(cc2s1)OCCO3`, the cell number change stood at 31.5%. For the same compound, under setting [2], the AC50 was 16.4 µM [rising, single point].
As to `CCCCc1cc2c(s1)CCCC/C2=N/O`, the cell number change was -52.2%. Also, the AC50 under setting [2] is 25.9 µM [falling, partial curve, poor fit]. Moreover, under setting [1], the AC50 was 25.9 µM [falling, partial curve, poor fit].
Consider `CN1CCN(C(=O)Cn2c(=O)oc3cc(S(=O)(=O)NCc4ccccc4)ccc32)CC1`, for which the cell number change was -120%. The AC50 under setting [2] was 25.9 µM [falling, partial curve, poor fit].
As for `CCOC(=O)CCCNC(=O)CCNC(=O)c1ccc(OCC(C)C)cc1`, the cell number change was -7.02%. In addition, under setting [1], the AC50 is 0.00461 µM [falling, full curve, poor fit].
With `CC1(C)Cc2c(sc3ncn4c(=S)[nH]nc4c23)CO1`, the cell number change amounted to 2.91%. Also, the AC50 under setting [2] is 4.61 µM [falling, single point].
`COC(=O)CCSCC(=O)N1N=C(c2ccc(Br)cc2)CC1c1cccc(OC)c1OC` (centres undefined): the cell number change is 25.1%.
For `O=C(Nc1ccc(F)cc1)C1CCN(S(=O)(=O)c2cccc3nonc23)CC1`, the cell number change was -10.3%.
Regarding `Nn1c(SCC(=O)Nc2ccc3c(c2)OCO3)nnc1-c1ccncc1`, the cell number change amounted to 7.01%.
With `COc1ccccc1NC(=O)CSc1nc2[nH]ncc2c(=O)[nH]1`, the cell number change was found to be 14.1%.
As for `O=C(c1cc(-c2ccccc2)nc2ccccc12)N1N=C(C(F)F)CC1(O)C(F)F` (centres undefined), the cell number change came out at 48.6%. In addition, the AC50 under setting [2] was 23.1 µM [rising, single point].
As for `Cc1cc(C)c(O)c(-c2cc(C(=O)NCCc3ccc(S(N)(=O)=O)cc3)[nH]n2)c1`, the cell number change amounted to 24.9%. Further, the AC50 under setting [1] was 13 µM [rising, partial curve].
For `COc1ccc(CCN2C(=O)c3ccncc3C2=O)cc1OC`, the cell number change came out at 9.89%. Also, the AC50 under setting [1] was 5.17 µM [rising, single point].

Source of the values: PubChem BioAssay AID2685 (National Center for Advancing Translational Sciences (NCATS), 2010).
